Test results reported in the supplement of paper PMC10849652.
Some of the results follow.

By UniProt entry, the sequences of proteins in these tests, tags left out. Where a name states a change or a piece, a line headed by the entry shows the natural chain unless it says otherwise.
UniProt Q14165: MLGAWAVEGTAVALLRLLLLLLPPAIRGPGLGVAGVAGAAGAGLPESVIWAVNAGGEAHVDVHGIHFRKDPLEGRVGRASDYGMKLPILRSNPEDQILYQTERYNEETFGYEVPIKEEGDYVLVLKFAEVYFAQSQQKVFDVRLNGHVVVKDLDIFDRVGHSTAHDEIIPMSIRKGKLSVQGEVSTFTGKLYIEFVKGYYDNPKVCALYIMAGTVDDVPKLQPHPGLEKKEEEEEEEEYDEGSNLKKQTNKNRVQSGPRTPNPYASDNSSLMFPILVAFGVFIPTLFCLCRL
UniProt Q8IYU8: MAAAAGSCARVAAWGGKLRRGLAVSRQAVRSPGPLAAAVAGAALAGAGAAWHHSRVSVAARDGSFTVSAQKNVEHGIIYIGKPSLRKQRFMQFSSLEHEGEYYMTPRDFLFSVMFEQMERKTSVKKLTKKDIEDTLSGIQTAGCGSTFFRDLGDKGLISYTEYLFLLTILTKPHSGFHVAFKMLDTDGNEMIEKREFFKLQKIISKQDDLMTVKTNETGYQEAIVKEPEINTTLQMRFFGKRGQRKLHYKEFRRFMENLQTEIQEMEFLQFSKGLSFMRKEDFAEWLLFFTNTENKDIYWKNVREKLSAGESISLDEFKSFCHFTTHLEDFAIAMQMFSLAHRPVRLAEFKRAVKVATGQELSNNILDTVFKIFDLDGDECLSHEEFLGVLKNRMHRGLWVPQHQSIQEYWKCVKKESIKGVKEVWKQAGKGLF
UniProt Q6WCQ1: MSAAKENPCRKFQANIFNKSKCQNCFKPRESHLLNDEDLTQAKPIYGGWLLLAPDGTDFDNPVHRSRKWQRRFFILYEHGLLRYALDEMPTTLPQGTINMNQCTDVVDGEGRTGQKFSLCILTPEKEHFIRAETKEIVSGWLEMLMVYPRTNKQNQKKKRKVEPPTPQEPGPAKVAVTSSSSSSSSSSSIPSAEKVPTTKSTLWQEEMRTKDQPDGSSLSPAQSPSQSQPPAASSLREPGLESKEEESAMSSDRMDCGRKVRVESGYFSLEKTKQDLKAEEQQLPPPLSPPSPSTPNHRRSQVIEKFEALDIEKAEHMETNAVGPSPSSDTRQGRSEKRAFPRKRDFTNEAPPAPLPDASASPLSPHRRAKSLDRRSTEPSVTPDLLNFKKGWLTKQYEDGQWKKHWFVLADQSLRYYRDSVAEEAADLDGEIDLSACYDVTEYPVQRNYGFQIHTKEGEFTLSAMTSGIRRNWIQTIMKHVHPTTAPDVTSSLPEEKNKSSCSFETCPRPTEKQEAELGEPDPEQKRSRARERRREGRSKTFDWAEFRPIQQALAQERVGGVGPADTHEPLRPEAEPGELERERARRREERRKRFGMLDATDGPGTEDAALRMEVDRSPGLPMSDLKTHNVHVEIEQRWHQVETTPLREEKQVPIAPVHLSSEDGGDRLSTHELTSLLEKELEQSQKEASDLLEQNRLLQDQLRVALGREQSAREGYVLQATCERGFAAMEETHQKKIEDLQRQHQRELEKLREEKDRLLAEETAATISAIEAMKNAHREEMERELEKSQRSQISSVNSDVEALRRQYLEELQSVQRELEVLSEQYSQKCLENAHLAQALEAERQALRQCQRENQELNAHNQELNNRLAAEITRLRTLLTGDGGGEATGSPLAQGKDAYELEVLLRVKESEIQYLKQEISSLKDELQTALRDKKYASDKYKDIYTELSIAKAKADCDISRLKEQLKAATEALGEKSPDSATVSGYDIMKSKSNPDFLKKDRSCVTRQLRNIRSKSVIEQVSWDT
UniProt Q9BQP7: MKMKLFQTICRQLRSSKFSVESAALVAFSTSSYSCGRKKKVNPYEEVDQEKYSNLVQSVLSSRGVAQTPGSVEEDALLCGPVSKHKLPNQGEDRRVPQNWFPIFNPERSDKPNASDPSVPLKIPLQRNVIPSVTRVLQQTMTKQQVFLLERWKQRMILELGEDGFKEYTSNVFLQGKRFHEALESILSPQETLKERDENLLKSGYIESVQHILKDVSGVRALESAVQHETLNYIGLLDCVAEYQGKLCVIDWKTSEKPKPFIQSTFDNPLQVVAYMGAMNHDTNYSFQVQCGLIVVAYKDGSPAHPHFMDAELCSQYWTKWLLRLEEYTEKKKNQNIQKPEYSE
UniProt O75352: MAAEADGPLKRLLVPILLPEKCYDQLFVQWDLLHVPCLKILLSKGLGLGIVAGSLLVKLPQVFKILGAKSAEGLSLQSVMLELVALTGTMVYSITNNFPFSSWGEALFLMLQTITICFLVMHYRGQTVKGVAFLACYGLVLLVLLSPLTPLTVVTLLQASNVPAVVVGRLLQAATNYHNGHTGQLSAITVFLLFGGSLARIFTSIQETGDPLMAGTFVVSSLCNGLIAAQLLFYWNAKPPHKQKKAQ
UniProt Q5XKP0: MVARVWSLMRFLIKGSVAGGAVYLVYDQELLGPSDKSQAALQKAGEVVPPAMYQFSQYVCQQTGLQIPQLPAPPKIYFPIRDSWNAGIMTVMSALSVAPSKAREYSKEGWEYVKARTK
UniProt Q86TA1: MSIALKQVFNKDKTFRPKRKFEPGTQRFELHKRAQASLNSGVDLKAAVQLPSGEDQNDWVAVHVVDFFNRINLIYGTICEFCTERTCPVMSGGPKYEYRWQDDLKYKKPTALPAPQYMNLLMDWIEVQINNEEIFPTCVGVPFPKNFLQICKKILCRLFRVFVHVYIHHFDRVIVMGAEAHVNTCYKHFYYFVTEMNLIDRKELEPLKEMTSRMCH
UniProt Q99797: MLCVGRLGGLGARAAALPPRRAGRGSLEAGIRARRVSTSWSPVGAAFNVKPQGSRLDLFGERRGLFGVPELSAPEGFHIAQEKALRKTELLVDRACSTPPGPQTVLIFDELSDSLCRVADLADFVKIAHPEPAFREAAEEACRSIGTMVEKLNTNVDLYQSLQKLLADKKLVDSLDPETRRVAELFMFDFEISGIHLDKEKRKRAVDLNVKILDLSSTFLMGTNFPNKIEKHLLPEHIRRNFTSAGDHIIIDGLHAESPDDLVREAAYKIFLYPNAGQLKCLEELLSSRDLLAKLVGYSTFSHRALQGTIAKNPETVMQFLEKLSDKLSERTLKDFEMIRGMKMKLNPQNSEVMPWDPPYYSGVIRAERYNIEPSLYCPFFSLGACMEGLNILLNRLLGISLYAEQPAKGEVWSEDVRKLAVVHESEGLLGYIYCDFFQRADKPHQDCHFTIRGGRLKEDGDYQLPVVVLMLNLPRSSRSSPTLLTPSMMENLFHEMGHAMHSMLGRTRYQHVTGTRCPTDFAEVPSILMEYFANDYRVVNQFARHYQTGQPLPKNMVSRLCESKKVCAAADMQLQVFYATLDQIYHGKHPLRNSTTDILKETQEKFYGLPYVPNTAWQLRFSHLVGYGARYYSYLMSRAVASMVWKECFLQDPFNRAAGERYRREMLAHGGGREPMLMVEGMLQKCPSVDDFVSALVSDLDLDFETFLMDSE
UniProt P49959: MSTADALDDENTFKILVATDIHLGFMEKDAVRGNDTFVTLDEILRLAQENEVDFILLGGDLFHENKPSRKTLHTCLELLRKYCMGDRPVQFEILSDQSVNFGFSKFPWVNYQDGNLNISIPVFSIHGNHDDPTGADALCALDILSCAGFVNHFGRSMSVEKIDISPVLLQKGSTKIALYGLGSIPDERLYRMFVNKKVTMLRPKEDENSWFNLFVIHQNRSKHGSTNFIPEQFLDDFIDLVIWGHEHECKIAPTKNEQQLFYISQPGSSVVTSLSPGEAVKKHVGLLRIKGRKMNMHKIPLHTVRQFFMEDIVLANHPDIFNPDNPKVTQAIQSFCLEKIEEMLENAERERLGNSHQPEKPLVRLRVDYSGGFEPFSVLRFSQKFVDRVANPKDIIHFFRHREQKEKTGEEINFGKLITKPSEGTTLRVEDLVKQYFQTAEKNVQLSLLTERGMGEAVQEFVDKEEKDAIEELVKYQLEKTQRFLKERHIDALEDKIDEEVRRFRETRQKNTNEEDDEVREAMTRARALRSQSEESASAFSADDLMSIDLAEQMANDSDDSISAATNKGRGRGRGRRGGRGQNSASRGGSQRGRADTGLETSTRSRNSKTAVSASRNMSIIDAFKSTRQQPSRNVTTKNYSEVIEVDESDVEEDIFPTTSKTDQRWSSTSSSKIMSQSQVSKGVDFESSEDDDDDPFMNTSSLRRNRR
UniProt Q9HAP2: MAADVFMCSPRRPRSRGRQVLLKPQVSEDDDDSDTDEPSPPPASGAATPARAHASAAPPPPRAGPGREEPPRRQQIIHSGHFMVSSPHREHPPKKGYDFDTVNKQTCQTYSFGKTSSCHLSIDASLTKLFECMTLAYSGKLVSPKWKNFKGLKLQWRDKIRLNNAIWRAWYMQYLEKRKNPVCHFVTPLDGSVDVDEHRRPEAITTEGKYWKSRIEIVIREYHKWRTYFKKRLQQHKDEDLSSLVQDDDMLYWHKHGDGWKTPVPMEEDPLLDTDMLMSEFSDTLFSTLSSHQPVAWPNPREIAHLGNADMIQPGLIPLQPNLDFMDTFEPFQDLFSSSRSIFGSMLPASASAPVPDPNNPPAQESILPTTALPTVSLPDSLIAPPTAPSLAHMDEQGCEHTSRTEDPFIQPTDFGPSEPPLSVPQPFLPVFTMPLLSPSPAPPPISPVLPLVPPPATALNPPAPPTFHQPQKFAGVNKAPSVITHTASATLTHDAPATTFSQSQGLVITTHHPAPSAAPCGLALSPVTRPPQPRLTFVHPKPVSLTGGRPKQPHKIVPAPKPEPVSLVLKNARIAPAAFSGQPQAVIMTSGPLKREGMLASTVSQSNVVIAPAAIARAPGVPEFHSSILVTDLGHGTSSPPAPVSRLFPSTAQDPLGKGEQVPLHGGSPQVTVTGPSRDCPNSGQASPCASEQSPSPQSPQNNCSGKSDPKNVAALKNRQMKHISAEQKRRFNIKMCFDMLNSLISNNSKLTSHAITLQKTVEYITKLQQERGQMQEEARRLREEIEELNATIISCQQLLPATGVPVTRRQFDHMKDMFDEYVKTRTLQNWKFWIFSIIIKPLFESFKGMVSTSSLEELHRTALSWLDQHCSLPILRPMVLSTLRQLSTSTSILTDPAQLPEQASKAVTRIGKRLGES
UniProt Q96PC5: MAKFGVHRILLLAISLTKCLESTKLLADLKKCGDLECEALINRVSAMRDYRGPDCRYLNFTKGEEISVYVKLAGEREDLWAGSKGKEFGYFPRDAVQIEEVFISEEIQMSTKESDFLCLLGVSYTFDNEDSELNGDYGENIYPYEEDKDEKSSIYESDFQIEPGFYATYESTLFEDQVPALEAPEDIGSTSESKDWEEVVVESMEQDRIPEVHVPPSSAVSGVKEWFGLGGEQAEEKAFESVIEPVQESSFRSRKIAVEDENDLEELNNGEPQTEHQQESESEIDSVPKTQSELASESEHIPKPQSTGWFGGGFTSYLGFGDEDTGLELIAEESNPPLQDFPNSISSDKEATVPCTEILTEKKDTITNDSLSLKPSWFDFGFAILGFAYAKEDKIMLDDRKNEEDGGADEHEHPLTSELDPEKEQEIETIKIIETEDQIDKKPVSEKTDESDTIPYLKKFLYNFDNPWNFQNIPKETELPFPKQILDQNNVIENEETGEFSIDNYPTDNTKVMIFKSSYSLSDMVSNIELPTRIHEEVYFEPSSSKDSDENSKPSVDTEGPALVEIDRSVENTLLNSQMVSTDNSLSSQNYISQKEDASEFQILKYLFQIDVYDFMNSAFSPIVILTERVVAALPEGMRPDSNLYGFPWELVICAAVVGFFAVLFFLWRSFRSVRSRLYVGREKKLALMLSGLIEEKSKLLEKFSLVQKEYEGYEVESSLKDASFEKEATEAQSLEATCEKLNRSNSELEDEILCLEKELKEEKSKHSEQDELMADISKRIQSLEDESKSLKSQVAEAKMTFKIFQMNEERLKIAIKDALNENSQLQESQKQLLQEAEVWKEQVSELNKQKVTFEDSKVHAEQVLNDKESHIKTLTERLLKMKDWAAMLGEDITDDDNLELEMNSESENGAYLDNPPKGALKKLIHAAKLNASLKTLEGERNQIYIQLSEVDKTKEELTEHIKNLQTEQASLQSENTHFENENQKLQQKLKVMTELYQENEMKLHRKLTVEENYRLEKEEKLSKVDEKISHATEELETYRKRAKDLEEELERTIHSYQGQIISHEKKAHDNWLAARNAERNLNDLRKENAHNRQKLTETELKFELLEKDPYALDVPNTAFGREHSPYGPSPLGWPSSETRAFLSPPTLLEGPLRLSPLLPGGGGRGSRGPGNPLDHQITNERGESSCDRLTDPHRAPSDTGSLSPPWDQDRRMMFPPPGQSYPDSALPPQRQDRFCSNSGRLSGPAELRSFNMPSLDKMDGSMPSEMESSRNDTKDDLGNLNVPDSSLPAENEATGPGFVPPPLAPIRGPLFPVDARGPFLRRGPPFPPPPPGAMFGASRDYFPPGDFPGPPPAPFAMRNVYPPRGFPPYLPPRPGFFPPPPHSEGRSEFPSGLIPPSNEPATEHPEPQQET

Experiments:
Assay in all cases: log2 fold change, soluble protein after heating vs DMSO (PISA); higher = thermal stabilisation; K562 lysate, 10 uM; active = over 0.2 and 3.5 SD of the protein, either way, in both replicates (recomputed)
alvocidib = compound: CN1CC[C@H](c2c(O)cc(O)c3c(=O)cc(-c4ccccc4Cl)oc23)[C@H](O)C1 [alvocidib]
Outline: (§1)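 The values are log-two fold changes in thermal stability compared with solvent controls and come from duplicates. They were obtained by TMTpro 16plex LC-MS/MS, with channel sums equalised, on the supernatant after 21,000xg for 90 min. That supernatant came from crude K562 extract at 1 mg/mL protein treated with 10 μM compound for 30 min, heated for 3 min across 48°C-58°C, pooled and brought to 0.5% NP-40 at 4°C.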

Tubastatin A = compound: CN1CCc2c(c3ccccc3n2Cc2ccc(C(=O)NO)cc2)C1 [Tubastatin A]
Outline: as §1

[1] = compound: CNC(=O)C1=CC=CC=C1NC2=NC(=NC=C2Cl)NC3=C(C=C(C=C3)N4CCOCC4)OC
Outline: as §1

defactinib = compound: CNC(=O)c1ccc(Nc2ncc(C(F)(F)F)c(NCc3nccnc3N(C)S(C)(=O)=O)n2)cc1 [defactinib]
Outline: as §1

[2] = compound: CNc1nc(-c2ccc3c(N)n[nH]c3c2)cc(N2C[C@@H](C(=O)NC3CCCCC3)CC[C@H]2C)n1
Outline: as §1

encorafenib = compound: COC(=O)N[C@@H](C)CNc1nccc(-c2cn(C(C)C)nc2-c2cc(Cl)cc(NS(C)(=O)=O)c2F)n1 [encorafenib]
Outline: as §1

[3] = compound: COC(=O)[C@H](CCSC)NC(=O)C1=C(C=C(C=C1)NC[C@H](CS)N)C2=CC=CC=C2
Outline: as §1

alisertib = compound: COc1cc(Nc2ncc3c(n2)-c2ccc(Cl)cc2C(c2c(F)cccc2OC)=NC3)ccc1C(=O)O [alisertib]
Outline: as §1

[4] = compound: COc1cc2nc(-c3cc(F)ccc3O)nc(N[C@@H]3CNC[C@H]3C(C)(C)O)c2cc1OC
Outline: as §1

gefitinib = compound: COc1cc2ncnc(Nc3ccc(F)c(Cl)c3)c2cc1OCCCN1CCOCC1 [gefitinib]
Outline: as §1

Measured: log2 fold change

MIEF1 (UniProt L0R8F8)
inactive: alvocidib 0.039 | Tubastatin A 0.047 | [1] -0.014 | defactinib 0.012 | [2] 0.071 | encorafenib -0.032 | [3] 0.038 | alisertib 0.045 | [4] 0.061 | gefitinib 0.097

MLEC (UniProt Q14165)
inactive: alvocidib 0.004 | Tubastatin A 0.036 | [1] 0.005 | defactinib -0.004 | [2] -0.073 | encorafenib 0 | [3] -0.023 | alisertib 0.024 | [4] 0.011 | gefitinib -0.002

MLXIPL (UniProt Q9NP71)
inactive: alvocidib -0.086 | Tubastatin A -0.122 | [1] -0.089

Two consecutive records already listed, for reference:
MIEF1 (UniProt L0R8F8)
inactive: alvocidib 0.039 | Tubastatin A 0.047 | [1] -0.014 | defactinib 0.012 | [2] 0.071 | encorafenib -0.032 | [3] 0.038 | alisertib 0.045 | [4] 0.061 | gefitinib 0.097

MLEC (UniProt Q14165)
inactive: alvocidib 0.004 | Tubastatin A 0.036 | [1] 0.005 | defactinib -0.004 | [2] -0.073 | encorafenib 0 | [3] -0.023 | alisertib 0.024 | [4] 0.011 | gefitinib -0.002

Additional entries:

MPLKIP (UniProt Q8TAP9)
inactive: alvocidib -0.005 | Tubastatin A -0.004 | [1] -0.018 | defactinib -0.045 | [2] -0.07 | encorafenib -0.033 | [3] -0.046 | alisertib 0.044 | [4] 0.029 | gefitinib 0.115

MOCS1 isoform 8 (UniProt Q9NZB8)
inactive: alvocidib -0.108 | Tubastatin A -0.008 | [1] 0.002 | defactinib 0.113 | [2] -0.105 | encorafenib 0.039 | [3] -0.055 | alisertib -0.099 | [4] 0.003
active: gefitinib 0.395

MRPL14 (UniProt Q6P1L8)
inactive: alvocidib 0.096 | Tubastatin A -0.089 | [1] -0.015 | defactinib -0.156 | [2] -0.029 | encorafenib -0.044 | [3] -0.16 | alisertib -0.02 | [4] -0.046 | gefitinib 0.068

MICU2 (UniProt Q8IYU8)
inactive: alvocidib 0.03 | Tubastatin A -0.039 | [1] 0.01 | defactinib 0.003 | [2] 0.009 | encorafenib 0.015 | [3] -0.091 | alisertib 0.039 | [4] -0.128 | gefitinib -0.054

MOV10 (UniProt Q9HCE1)
inactive: alvocidib 0.002 | Tubastatin A -0.014 | [1] -0.011 | defactinib -0.006 | [2] -0.003 | encorafenib 0.004 | [3] -0.018 | alisertib 0.021 | [4] 0.002 | gefitinib -0.003

MNAT1 (UniProt P51948)
inactive: alvocidib -0.021 | Tubastatin A 0.005 | [1] -0.006 | defactinib -0.105 | [2] 0.073 | encorafenib 0.037 | [3] -0.041 | alisertib 0.024 | [4] -0.005 | gefitinib -0.016

MRPL17 (UniProt Q9NRX2)
inactive: alvocidib 0.007 | Tubastatin A -0.049 | [1] -0.024 | defactinib -0.049 | [2] -0.009 | encorafenib -0.017 | [3] -0.07 | alisertib 0.067 | [4] 0.053 | gefitinib 0.029

MICAL1 isoform 4 (UniProt Q8TDZ2)
inactive: alvocidib 0.012 | Tubastatin A 0.041 | [1] 0.048 | defactinib -0.004 | [2] -0.057 | encorafenib -0.008 | [3] -0.014 | alisertib 0.098 | [4] -0.01 | gefitinib 0.013

MORF4L2 (UniProt Q15014)
inactive: alvocidib -0.029 | Tubastatin A -0.007 | [1] 0.003 | defactinib -0.004 | [2] 0.01 | encorafenib -0.015 | [3] -0.086 | alisertib 0.044 | [4] -0.01 | gefitinib 0.039

MPV17L2 (UniProt Q567V2)
inactive: alvocidib 0.072 | Tubastatin A 0.1 | [1] 0.049 | defactinib -0.007 | [2] -0.005 | encorafenib -0.063 | [3] -0.071 | alisertib -0.003 | [4] -0.001 | gefitinib -0.083

MPRIP isoform 2 (UniProt Q6WCQ1)
inactive: alvocidib -0.022 | Tubastatin A -0.086 | [1] -0.021 | defactinib -0.01 | [2] 0.033 | encorafenib 0.018 | [3] -0.056 | alisertib 0.063 | [4] -0.09 | gefitinib -0.053

MGME1 (UniProt Q9BQP7)
inactive: alvocidib -0.017 | Tubastatin A 0.066 | [1] -0.019 | defactinib -0.022 | [2] 0.005 | encorafenib -0.008 | [3] -0.032 | alisertib -0.027 | [4] 0.012 | gefitinib -0.009

MLST8 (UniProt Q9BVC4)
inactive: alvocidib 0.009 | Tubastatin A -0.072 | [1] -0.059 | defactinib -0.023 | [2] -0.059 | encorafenib -0.012 | [3] 0.038 | alisertib -0.016 | [4] -0.01 | gefitinib -0.004

MMADHC (UniProt Q9H3L0)
inactive: alvocidib 0.034 | Tubastatin A -0.033 | [1] 0.012 | defactinib 0.021 | [2] 0.032 | encorafenib -0.001 | [3] 0.006 | alisertib -0.048 | [4] -0.015 | gefitinib -0.041

MPDU1 (UniProt O75352)
inactive: alvocidib -0.099 | Tubastatin A -0.011 | [1] 0.002 | defactinib 0 | [2] 0.106 | encorafenib 0.018 | [3] -0.017 | alisertib 0.016 | [4] -0.011 | gefitinib 0.018

MICALL1 (UniProt Q8N3F8)
inactive: alvocidib -0.003 | Tubastatin A -0.063 | [1] -0.01 | defactinib -0.003 | [2] 0.049 | encorafenib 0.027 | [3] -0.006 | alisertib -0.012 | [4] 0.022 | gefitinib 0.009

MICOS13 (UniProt Q5XKP0)
inactive: alvocidib 0.048 | Tubastatin A -0.18 | [1] 0.012 | defactinib 0.081 | [2] 0.03 | encorafenib -0.029 | [3] 0.18 | alisertib 0.013 | [4] -0.13 | gefitinib 0.025

MICAL3 (UniProt Q7RTP6)
inactive: alvocidib -0.041 | Tubastatin A 0.009 | [1] 0.027 | defactinib -0.006 | [2] 0.011 | encorafenib 0.001 | [3] 0.013 | alisertib 0.03 | [4] 0.008 | gefitinib 0.006

MIEF1 (UniProt Q9NQG6)
inactive: alvocidib 0.021 | Tubastatin A 0 | [1] -0.019 | defactinib -0.017 | [2] -0.041 | encorafenib 0.047 | [3] 0.006 | alisertib -0.105 | [4] -0.036 | gefitinib 0.024

MOB3B (UniProt Q86TA1)
inactive: alvocidib 0.071 | Tubastatin A 0 | [1] 0.076 | defactinib -0.008 | [2] 0.062 | encorafenib 0.253 | [3] -0.098 | alisertib -0.027 | [4] -0.025 | gefitinib -0.131

MIPEP (UniProt Q99797)
inactive: alvocidib 0.027 | Tubastatin A 0.011 | [1] -0.03 | defactinib 0.025 | [2] -0.067 | encorafenib -0.012 | [3] 0.154 | alisertib -0.038 | [4] -0.009 | gefitinib -0.007

MRE11 isoform 3 (UniProt P49959)
inactive: alvocidib -0.008 | Tubastatin A 0.02 | [1] -0.007 | defactinib 0.019 | [2] 0.039 | encorafenib 0.001 | [3] -0.012 | alisertib -0.01 | [4] -0.012 | gefitinib 0.01

MORF4L1 isoform 2 (UniProt Q9UBU8)
active: [2] 0.247
inactive: alvocidib -0.01 | Tubastatin A 0.001 | [1] -0.001 | defactinib -0.005 | encorafenib -0.023 | [3] -0.021 | alisertib 0.045 | [4] 0.044 | gefitinib 0.008

MLXIP (UniProt Q9HAP2)
inactive: alvocidib -0.035 | Tubastatin A -0.016 | [1] -0.049 | defactinib -0.029 | [2] -0.017 | encorafenib 0.027 | [3] -0.016 | alisertib 0.002 | [4] -0.051 | gefitinib -0.047

MIA2 (UniProt Q96PC5)
inactive: alvocidib 0.073 | Tubastatin A -0.046 | [1] -0.104 | defactinib -0.002 | [2] 0.008 | encorafenib 0.035 | [3] -0.087 | alisertib -0.034 | [4] -0.071 | gefitinib -0.064

MIF4GD isoform 3 (UniProt A9UHW6)
inactive: alvocidib 0.021 | Tubastatin A 0.014 | [1] 0.002 | defactinib -0.01 | [2] -0.066 | encorafenib -0.012 | [3] 0.01 | alisertib -0.037 | [4] 0.007 | gefitinib 0.049

MIS18A (UniProt Q9NYP9)
inactive: alvocidib 0.064 | Tubastatin A -0.001 | [1] 0.045 | defactinib -0.008 | [2] 0.015 | encorafenib 0.015 | [3] -0.035 | alisertib -0.015 | [4] -0.019 | gefitinib 0.026
